Experimental data from paper PMC10916551, “NNMT/1‐MNA Promote Cell‐Cycle Progression of Breast Cancer by Targeting UBC12/Cullin‐1‐Mediated Degradation of P27 Proteins” (Advanced Science, 2023).
No constants are given. Whether binding was seen depends on the method and setting. Binding seen in cells or lysates may run through a third protein. Some results given as binding are weak or reduced against the parent protein; the word gives no strength.

Amino acid sequences for entries named in this document (tags omitted).
UniProt P11142: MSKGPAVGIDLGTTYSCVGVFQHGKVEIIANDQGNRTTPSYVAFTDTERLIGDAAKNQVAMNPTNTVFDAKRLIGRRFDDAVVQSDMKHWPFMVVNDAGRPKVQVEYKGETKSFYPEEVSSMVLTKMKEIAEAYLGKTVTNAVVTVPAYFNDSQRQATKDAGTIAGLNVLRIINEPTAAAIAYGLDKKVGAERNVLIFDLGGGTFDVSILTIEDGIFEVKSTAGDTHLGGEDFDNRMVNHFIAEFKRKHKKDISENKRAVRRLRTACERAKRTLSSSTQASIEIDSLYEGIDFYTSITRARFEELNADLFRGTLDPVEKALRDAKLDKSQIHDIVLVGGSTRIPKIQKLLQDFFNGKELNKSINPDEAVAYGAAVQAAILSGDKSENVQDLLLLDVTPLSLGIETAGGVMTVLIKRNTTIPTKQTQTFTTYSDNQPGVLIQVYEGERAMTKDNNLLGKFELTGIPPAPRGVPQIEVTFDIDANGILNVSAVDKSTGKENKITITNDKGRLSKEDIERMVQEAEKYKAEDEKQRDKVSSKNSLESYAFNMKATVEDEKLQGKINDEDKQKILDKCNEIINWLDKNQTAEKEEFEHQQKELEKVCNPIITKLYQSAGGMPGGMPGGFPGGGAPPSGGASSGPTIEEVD
UniProt P61081: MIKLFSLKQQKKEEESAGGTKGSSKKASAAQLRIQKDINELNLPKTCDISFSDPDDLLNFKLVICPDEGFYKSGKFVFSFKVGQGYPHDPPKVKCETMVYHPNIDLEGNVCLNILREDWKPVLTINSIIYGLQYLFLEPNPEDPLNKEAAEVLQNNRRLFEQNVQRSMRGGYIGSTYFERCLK

Biological target: HSC70 (human (endogenous in MCF7)) (UniProt P11142)
Experiment: co-IP; MCF7 lysate in IP lysis buffer; 800 µg proteins with 8 µg antibody against HSC70 overnight at 4 °C, protein A+G agarose 4 h at 4 °C, washed with cold PBS; anti-UBC12 immunoblot

binding: binds
Substance: UBC12 (from UniProt P61081 1-183) (enzyme)
